Data: US7977379B2, “Method for angiogenesis inhibition or immunostimulation” (priority 2002, dated 2011)

Test system: angiogenesis induced by means of MATRIGEL matrix (heparin, a-FGF)
Test: Test Example 4: angiogenesis induced by MATRIGEL matrix (same method as test example 1)
Format: in vivo, C57BL/6 female mice
Conditions: MATRIGEL weight and hemoglobin vs control group
Description: More specifically, normal mice (5 mice/1 group) were used after breeding C57BL/6 female mice (5 week old, purchased from Charles River JAPAN, Inc.) preliminarily for one week. While cooling test materials as shown in the following, each of the test materials 0.5 ml were transplanted to subcutaneous of abdomen of the mice. MATRIGEL was taken out on the sixth day after transplantation, and state of angiogenesis was observed. In addition, the MATRIGEL was freeze-dried, and it was weighed. […] Group 0 of nothing addition: MATRIGEL Control group: […] Group 1 of test material addition: […] Group 3 of test material addition: […] Group 4 of test material addition: […] Group 5 of test material addition: […] Group 6 of test material addition: […] Group 7 of test material addition: […] Group 9 of test material addition: […]

Compound: NCCCC(=O)O [gamma aminobutyric acid, reference compound]
- angiogenesis inhibition effect (in words): not recognized
